Source: the supplement of paper PMC10973195
± gives the standard deviation of the averaged measurements. This is one part of the list. Values are raw readings; no control value is given beside them.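 A neuron, microglia and astrocyte co-culture models inflammatory neurodegeneration: bacterial LPS drives microglia-dependent neuron loss. Each compound was tested against DMSO vehicle wells on the same plates; BAY61-3606, a SYK inhibitor, was the reference neuroprotective control.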

Experiments:
Conditions in all cases: 1 µM, treatment time 3 days
[1] = test system: rat primary cerebellar neuron-glia coculture; assay: microglia count (IB4+) per image field (cells per field); higher = more microglia
[2] = test system: rat primary cerebellar neuron-glia coculture; assay: necrotic cell count (DRAQ7+) per image field (cells per field); higher = more necrosis
[3] = test system: rat primary cerebellar neuron-glia coculture; assay: median microglial FormFactor (circularity) per image (dimensionless (0-1)); higher = rounder, more ameboid microglia

SMILES | microglia count ([1]; LPS 0 ng/mL) | microglia count ([1]; LPS 100 ng/mL) | necrotic cell count ([2]; LPS 0 ng/mL) | necrotic cell count ([2]; LPS 100 ng/mL) | median microglial FormFactor ([3]; LPS 0 ng/mL) | median microglial FormFactor ([3]; LPS 100 ng/mL)
CC(C)Cc1ccc([C@@H](C)C(=O)NS(C)(=O)=O)cc1 | 328 ± 590 | 423 ± 60 | 76.5 ± 38 | 924 ± 240 | 0.539 ± 0.081 | 0.676 ± 0.056
O=C(c1ccc(C(=O)N2CCC(N3CCCC3)CC2)c(Nc2ccccc2)c1)N1CCC(N2CCCC2)CC1 | 186 ± 39 | 454 ± 90 | 72.2 ± 24 | 790 ± 360 | 0.563 ± 0.072 | 0.662 ± 0.092
COc1cc2c(NC3CCN(C(C)C)CC3)nc(C3CCCCC3)nc2cc1OCCCN1CCCC1 | 161 ± 34 | 406 ± 78 | 84.6 ± 31 | 931 ± 270 | 0.53 ± 0.095 | 0.689 ± 0.043
COc1cc2nc(N3CCN(C(=O)C4COc5ccccc5O4)CC3)nc(N)c2cc1OC (stereo not drawn) | 172 ± 69 | 666 ± 90 | 161 ± 28 | 131 ± 45 | 0.661 ± 0.091 | 0.478 ± 0.051
O=C(NCCCNc1nc(Nc2cccc(NC(=O)N3CCCC3)c2)ncc1I)c1cccs1 | 154 ± 55 | 441 ± 70 | 121 ± 49 | 324 ± 170 | 0.548 ± 0.087 | 0.632 ± 0.086
CC(=O)Nc1cccc2c1c(Sc1ccc(Cl)cc1)c(C)n2CC(=O)O | 150 ± 39 | 519 ± 94 | 114 ± 35 | 452 ± 280 | 0.543 ± 0.11 | 0.553 ± 0.1
COc1ccc2c(c1)[C@]1(C[C@H]1c1ccc3c(/C=C/c4ccc(CN5C[C@@H](C)O[C@@H](C)C5)cc4)n[nH]c3c1)C(=O)N2 | 141 ± 47 | 430 ± 94 | 83.5 ± 37 | 722 ± 320 | 0.472 ± 0.097 | 0.69 ± 0.071
CCCCC[C@H](CC(=O)NO)C(=O)N[C@H](C(=O)N1CCC[C@H]1CO)C(C)C | 229 ± 240 | 425 ± 69 | 89.6 ± 30 | 882 ± 260 | 0.54 ± 0.085 | 0.679 ± 0.053
O=C(/C=C/N1C[C@H]2C[C@@H]1CN2c1ccccn1)c1ccccc1O | 179 ± 68 | 429 ± 69 | 68.5 ± 14 | 905 ± 300 | 0.542 ± 0.077 | 0.699 ± 0.064
O=C(N1CCCCC1c1ccccc1)n1cc(-c2ccc(-c3cccc(CO)c3)cc2)nn1 (stereo not drawn) | 172 ± 56 | 521 ± 290 | 80.6 ± 15 | 818 ± 350 | 0.545 ± 0.074 | 0.679 ± 0.05
CNCCC(Oc1ccc(C(F)(F)F)cc1)c1ccccc1 (stereo not drawn) | 183 ± 67 | 685 ± 100 | 152 ± 22 | 135 ± 53 | 0.638 ± 0.088 | 0.466 ± 0.047
CC(=O)O[C@]1(C(C)=O)CC[C@H]2[C@@H]3C[C@H](C)C4=CC(=O)CC[C@]4(C)[C@H]3CC[C@@]21C | 163 ± 63 | 575 ± 90 | 111 ± 34 | 148 ± 60 | 0.567 ± 0.094 | 0.441 ± 0.081
COc1cc(C(=O)NS(=O)(=O)c2ccccc2C)ccc1Cc1cn(C)c2ccc(NC(=O)OC3CCCC3)cc12 | 40.2 ± 15 | 376 ± 94 | 275 ± 92 | 208 ± 59 | 0.623 ± 0.096 | 0.633 ± 0.034
NS(=O)(=O)c1cc(C(=O)NCCOc2ccccc2)c(Cl)cc1Cl | 328 ± 520 | 418 ± 72 | 81.7 ± 32 | 1020 ± 370 | 0.534 ± 0.066 | 0.666 ± 0.078
Cn1ncnc1COc1nn2c(-c3cc(F)ccc3F)nnc2cc1C(C)(C)C | 146 ± 28 | 611 ± 140 | 141 ± 52 | 132 ± 130 | 0.65 ± 0.1 | 0.488 ± 0.09
O=c1ccn([C@@H]2O[C@H](CO)[C@@H](O)[C@H]2O)c(=O)[nH]1 | 171 ± 78 | 440 ± 87 | 84.5 ± 31 | 1120 ± 370 | 0.52 ± 0.11 | 0.636 ± 0.045
CN1CCN(c2ccc(-c3cccc(CN4CCOCC4)c3)cc2NC(=O)c2c[nH]c(=O)cc2C(F)(F)F)CC1 | 155 ± 35 | 429 ± 120 | 88.6 ± 31 | 791 ± 420 | 0.549 ± 0.063 | 0.649 ± 0.097
Cc1c(C(=O)NN2CCCCC2)nn(-c2ccc(Cl)cc2Cl)c1-c1ccc(I)cc1 | 157 ± 26 | 461 ± 120 | 85.8 ± 36 | 1000 ± 460 | 0.55 ± 0.064 | 0.635 ± 0.06
O=C(O)/C=C/c1ccc(O)c(O)c1 | 206 ± 36 | 401 ± 77 | 48.9 ± 34 | 786 ± 330 | 0.489 ± 0.083 | 0.764 ± 0.053
CCCCN1C[C@H](O)[C@@H](O)[C@H](O)[C@H]1CO | 154 ± 77 | 435 ± 78 | 88.7 ± 28 | 967 ± 420 | 0.553 ± 0.1 | 0.636 ± 0.074
COc1ccc2[nH]cc(CCNC(C)=O)c2c1 | 228 ± 150 | 436 ± 74 | 65.5 ± 14 | 1060 ± 370 | 0.567 ± 0.067 | 0.643 ± 0.1
O=C(Oc1nsnc1N1CCCCC1)N1CCOCC1 | 171 ± 65 | 439 ± 76 | 88.2 ± 41 | 908 ± 320 | 0.559 ± 0.082 | 0.686 ± 0.093
C#C[C@]1(O)CC[C@H]2[C@@H]3CCc4cc(O)ccc4[C@H]3CC[C@@]21C | 173 ± 45 | 416 ± 68 | 78.2 ± 35 | 1110 ± 400 | 0.546 ± 0.052 | 0.678 ± 0.057
NC(=O)c1ccc(N(C(N)=O)c2c(F)cccc2F)nc1-c1ccc(F)cc1F | 169 ± 44 | 441 ± 93 | 79 ± 31 | 821 ± 380 | 0.547 ± 0.085 | 0.666 ± 0.071
Cc1[nH]n(-c2ccccc2)c(=O)c1C1(C(F)(F)F)C(=O)N(c2cccc(Cl)c2)C2=C1C(=O)CC(C)(C)C2 (stereo not drawn) | 185 ± 93 | 436 ± 96 | 97.7 ± 39 | 926 ± 210 | 0.528 ± 0.11 | 0.68 ± 0.069
Cc1c(F)cc(C(=O)NC2CC2)cc1-c1ccc(C(=O)NCC(C)(C)C)cn1 | 170 ± 45 | 513 ± 60 | 84.6 ± 25 | 259 ± 160 | 0.555 ± 0.092 | 0.574 ± 0.084
COc1ccc(-c2cc3nccn3c(Nc3ncccc3C(N)=O)n2)cc1OC | 98.4 ± 51 | 348 ± 75 | 285 ± 91 | 161 ± 120 | 0.567 ± 0.066 | 0.541 ± 0.096
O=C(CN1C(=O)C2(CCCC2)NC[C@H]1c1cc(F)cc(F)c1)Nc1ccc2c(c1)C[C@@]1(C2)C(=O)Nc2ncccc21 | 327 ± 550 | 456 ± 82 | 73 ± 32 | 976 ± 370 | 0.545 ± 0.099 | 0.688 ± 0.053

Retrieved one by one from the entries so far, 2 records:
SMILES | microglia count ([1]; LPS 0 ng/mL) | microglia count ([1]; LPS 100 ng/mL) | necrotic cell count ([2]; LPS 0 ng/mL) | necrotic cell count ([2]; LPS 100 ng/mL) | median microglial FormFactor ([3]; LPS 0 ng/mL) | median microglial FormFactor ([3]; LPS 100 ng/mL)
O=C(Oc1nsnc1N1CCCCC1)N1CCOCC1 | 171 ± 65 | 439 ± 76 | 88.2 ± 41 | 908 ± 320 | 0.559 ± 0.082 | 0.686 ± 0.093
O=c1ccn([C@@H]2O[C@H](CO)[C@@H](O)[C@H]2O)c(=O)[nH]1 | 171 ± 78 | 440 ± 87 | 84.5 ± 31 | 1120 ± 370 | 0.52 ± 0.11 | 0.636 ± 0.045
